This is one part of the list.

The record followed here is article PMC7819943, “Rice protein-binding microarrays: a tool to detect cis-acting elements near promoter regions in rice”.

In the test the target is T1, OsSMF1 (Oryza sativa, UniProt Q6ZLB0 1-436).
T1 sequence: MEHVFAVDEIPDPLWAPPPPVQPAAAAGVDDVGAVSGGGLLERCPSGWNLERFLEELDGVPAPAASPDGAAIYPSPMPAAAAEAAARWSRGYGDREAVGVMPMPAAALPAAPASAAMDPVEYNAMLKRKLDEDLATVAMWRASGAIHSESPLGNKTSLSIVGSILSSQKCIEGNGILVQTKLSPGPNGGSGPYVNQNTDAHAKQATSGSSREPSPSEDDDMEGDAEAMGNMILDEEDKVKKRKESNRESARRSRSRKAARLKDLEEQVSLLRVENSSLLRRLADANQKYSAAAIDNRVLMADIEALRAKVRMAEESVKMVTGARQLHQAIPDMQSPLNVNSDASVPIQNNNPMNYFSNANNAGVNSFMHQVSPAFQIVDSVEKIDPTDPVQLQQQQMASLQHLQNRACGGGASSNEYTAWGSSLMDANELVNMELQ
In words: protein-binding microarray (RPBM); PBS, 2% BSA, 51.3 ng/ul salmon testes DNA, 50 uM zinc acetate, 200 nM TF, 25 C, 1 h; high values mean tight binding. The settings on record: protein: recombinant; tags: N-terminal polyhistidine and DsRed monomer fusion (pET32a); chain copies: 2; label: CyDye5-dUTP incorporated in the synthesized complementary strand; 3' TTTTT single-stranded linker to array surface; dsDNA, one strand shown. Summed up: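 In PBS with 2% BSA, salmon testes DNA and 50 µM zinc acetate, 200 nM protein was incubated on a custom Agilent array at 25 °C for 1 h and then washed off. The array had been made double-stranded by primer extension with Cy5-dUTP and blocked with 2% BSA. The proteins were transcription factors fused N-terminally to polyhistidine and DsRed, expressed in E. coli BL21-CodonPlus and purified on Ni–NTA. The binding signal is per-feature fluorescence intensity (arbitrary units) from an Axon 4000B scanner.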
Regarding “CGCGCCACGTAGCACACCCCTCCCTAGCCCCTACGCCGGCCGGAGTCACCTAGTGCAG”, the binding signal is 10100 fluorescence intensity (a.u.).

In the case of “GGAAAGAGAGAGAGGGTGACGTGGACAACTGATTTGTGGGCGGAGTCACCTAGTGCAG”, the binding signal was 18700 fluorescence intensity (a.u.).

As to “ATTATGTGCCACATCAAAATCTAAGTGGTTTTGTGTAAGTCGGAGTCACCTAGTGCAG”, the binding signal was 3940 fluorescence intensity (a.u.).

Consider “GCAGAAAGGGACACTGCAGCAGCATATTGTTGCTGTGTATCGGAGTCACCTAGTGCAG”, for which the binding signal is 8380 fluorescence intensity (a.u.).

Consider “TGACATGACAAGTCACAGCCAACTTCTCAGAGTGTTAATACGGAGTCACCTAGTGCAG”, for which the binding signal is 3860 fluorescence intensity (a.u.).

Take “GGTTCAGGGTACTTTTGGTACACCTCAGCTATTATGAGAGCGGAGTCACCTAGTGCAG”: the binding signal is 7550 fluorescence intensity (a.u.).

Consider “TTCCTGTAGATCGAGATGGCCTCGCTGTTCCAGCATCACCCGGAGTCACCTAGTGCAG”, for which the binding signal is 3480 fluorescence intensity (a.u.).

As to “GCACGACATTTACTACGTGTATAGGTCAACGCTTAACCCTCGGAGTCACCTAGTGCAG”, the binding signal was 5470 fluorescence intensity (a.u.).

In the case of “TGAGCCAATTTCCTTCTCCTCGTTCTCAAGATTGAGGACACGGAGTCACCTAGTGCAG”, the binding signal was 18400 fluorescence intensity (a.u.).

With “GTATCAAAACATATTCAATCATAGATTTAATGAAAACTAACGGAGTCACCTAGTGCAG”, the binding signal is 3360 fluorescence intensity (a.u.).

With “GACGAAGCTCTCCACCGGCGTGGTCCGTGGCAGCTACGGCCGGAGTCACCTAGTGCAG”, the binding signal is 27300 fluorescence intensity (a.u.).

As for “ATCCGATGTGTTAGATCGGACGTCCCACATGGGCGCGTGTCGGAGTCACCTAGTGCAG”, the binding signal was 3440 fluorescence intensity (a.u.).

Turning to “TGTTTACTACACATCAGACGAAAACCACATCGGATTGATTCGGAGTCACCTAGTGCAG”, the binding signal was 4220 fluorescence intensity (a.u.).

For “GAATTACCCAATTTACAGTTTTACACACGCAAATACTACCCGGAGTCACCTAGTGCAG”, the binding signal is 4640 fluorescence intensity (a.u.).

For “CAGCACGATGGGTCGGCCAGGCACGGAGCAAAATAGACAACGGAGTCACCTAGTGCAG”, the binding signal is 35700 fluorescence intensity (a.u.).

With “CGAGGTGAGAGGGGAGTGCGGCGATGGGAGGTGGGCGACGCGGAGTCACCTAGTGCAG”, the binding signal was 4440 fluorescence intensity (a.u.).

For “CACGTTGGAGCCATATGTATATATCGATGAGTCATCGATCCGGAGTCACCTAGTGCAG”, the binding signal is 17600 fluorescence intensity (a.u.).

As to “CTTTCAATTCGTGGTGGCGTTGGTAGTAAAATTGACTCAACGGAGTCACCTAGTGCAG”, the binding signal was 22400 fluorescence intensity (a.u.).

For the sequence “GATCTATCTCAATCAACCCACGTGGCCTCACCTCGCCGGACGGAGTCACCTAGTGCAG”, the binding signal was 14100 fluorescence intensity (a.u.).

With “CCATGTGATTATATGGGCCAACCCTGAGCCGCTGACGTGGCGGAGTCACCTAGTGCAG”, the binding signal is 26600 fluorescence intensity (a.u.).

Consider “CCCTAGTAGTTGCTGTCTTGCTGACGAAGTTCATTTGGTGCGGAGTCACCTAGTGCAG”, for which the binding signal is 6660 fluorescence intensity (a.u.).

Consider “TAACCATTTTAAGCACACATGGCAGTGTCATCATCTTGAGCGGAGTCACCTAGTGCAG”, for which the binding signal is 3860 fluorescence intensity (a.u.).

For the sequence “GATGCCCTCGACGTCGCCGTGTCATGTCTAATGGAAGAATCGGAGTCACCTAGTGCAG”, the binding signal was 3310 fluorescence intensity (a.u.).

Take “CCGAACCTTCAGATTAATATCTCTGCACGTCGTCGGTTGACGGAGTCACCTAGTGCAG”: the binding signal is 4320 fluorescence intensity (a.u.).

Turning to “GGTTAGGGTGGTATACGTCATTACATTTACACCCCACCGCCGGAGTCACCTAGTGCAG”, the binding signal is 8050 fluorescence intensity (a.u.).

Take “ATCGAGTATTAGATTATCATATACAATCTCGTGCTGCATCCGGAGTCACCTAGTGCAG”: the binding signal is 8560 fluorescence intensity (a.u.).

Regarding “TCTACACGGCACGTCGACGTGTCGTGTCGCGGGCCGACCCCGGAGTCACCTAGTGCAG”, the binding signal was 10600 fluorescence intensity (a.u.).

With “GGAGAGCCGACGATGACGGCGGCCACGGCGCGCGGCTGCTCGGAGTCACCTAGTGCAG”, the binding signal was 3390 fluorescence intensity (a.u.).

As for “CTTCTACGACGTCAGCCTCGTCGACGGCTACAACCTCCCCCGGAGTCACCTAGTGCAG”, the binding signal was 3600 fluorescence intensity (a.u.).

Take “TAATACTTGGTCCCACCTGTCATACACACATTACGTCATGCGGAGTCACCTAGTGCAG”: the binding signal is 8120 fluorescence intensity (a.u.).

As to “CTCATGATAGAACCCTCCAAAGTTTGTGTTAAACATGTCACGGAGTCACCTAGTGCAG”, the binding signal is 3620 fluorescence intensity (a.u.).

Consider “TGGCGCCGAGGCCGTGATCCGCAGCGGAGGTGACGAGGCGCGGAGTCACCTAGTGCAG”, for which the binding signal was 6370 fluorescence intensity (a.u.).

As to “CTACAGCCTACAGCCTCTAATAGGCTATCCGTGACGAGATCGGAGTCACCTAGTGCAG”, the binding signal was 3450 fluorescence intensity (a.u.).

As to “CGCCTCTCCCCACGCGACTGGACACGTGTCGTGCGCGGAGCGGAGTCACCTAGTGCAG”, the binding signal was 16000 fluorescence intensity (a.u.).

In the case of “CCTCGTTCGCTCGCTTTGGCGTACGTGGCCTCTGCTACTTCGGAGTCACCTAGTGCAG”, the binding signal is 6440 fluorescence intensity (a.u.).

On to “AAACGAGTGATCTGCAAGTTTGGGGACCGGGATGACACAGCGGAGTCACCTAGTGCAG”, for which the binding signal was 4960 fluorescence intensity (a.u.).

Consider “CATTTGCTATACAACTTTAGTACCGGTTCTCTCAATCTGGCGGAGTCACCTAGTGCAG”, for which the binding signal was 4340 fluorescence intensity (a.u.).

As to “GGAGGAGGTTGGATGACGTCATGGTGCGAGGTAGGTGGCCCGGAGTCACCTAGTGCAG”, the binding signal is 22000 fluorescence intensity (a.u.).

As to “GTCGACGTGTCCTACTCATCCACGCCACGTAACCAATTCCCGGAGTCACCTAGTGCAG”, the binding signal was 18400 fluorescence intensity (a.u.).

Regarding “TATCCGTGTGGCATGTCACTTTAGTGTCCATGTGGCATACCGGAGTCACCTAGTGCAG”, the binding signal is 4060 fluorescence intensity (a.u.).

On to “TTATGACATGTGTACCATCATGTGTCTATAACATATGAGTCGGAGTCACCTAGTGCAG”, for which the binding signal was 3470 fluorescence intensity (a.u.).

Regarding “GAGATAAAGAAGAGCGTGTTGTCACTAGCAAATATCCAACCGGAGTCACCTAGTGCAG”, the binding signal is 3370 fluorescence intensity (a.u.).

Turning to “AAAGCTTAAACCTGAGCGCTGGCATGACATGATCAGCCTGCGGAGTCACCTAGTGCAG”, the binding signal is 3730 fluorescence intensity (a.u.).

Consider “CCCCGCCGGTCAGTGTCAGCTGTGGTCACGGCAGTCCCCGCGGAGTCACCTAGTGCAG”, for which the binding signal is 3440 fluorescence intensity (a.u.).

“CCACGGGTAAACGGGCAAATTGGCATAATTGCCATCCCTACGGAGTCACCTAGTGCAG”: the binding signal is 3640 fluorescence intensity (a.u.).

On to “ATGAGGCCCATGACTCTTCGCCCGGACTTTCTTCCCCTTGCGGAGTCACCTAGTGCAG”, for which the binding signal is 3180 fluorescence intensity (a.u.).

Regarding “CGCGCAGCGGGCGCTTTGGTTGCATCTGTCACGGAATCTACGGAGTCACCTAGTGCAG”, the binding signal is 26400 fluorescence intensity (a.u.).

On to “CTACCCGTGATGGCGTCATTATGATGTGTTTCAGTCTGTACGGAGTCACCTAGTGCAG”, for which the binding signal was 12800 fluorescence intensity (a.u.).

Turning to “GTCCGGGCGAGCGTGTGGCTCACGGCGACGTCGAGCGGGTCGGAGTCACCTAGTGCAG”, the binding signal was 25500 fluorescence intensity (a.u.).

On to “CATCTCATTCGAATTAATTCATATGACGTCATAAAGCCCCCGGAGTCACCTAGTGCAG”, for which the binding signal was 14600 fluorescence intensity (a.u.).

With “TTCTGCCAGCAGTGCAGCAGGTCAGCCACTCAGCCCTCCTCGGAGTCACCTAGTGCAG”, the binding signal is 6770 fluorescence intensity (a.u.).

In the case of “TACTTTCGGACGAAGTGGATCAAGCTGCGTTCTACTCCCTCGGAGTCACCTAGTGCAG”, the binding signal is 24400 fluorescence intensity (a.u.).

In the case of “CGCGTGGACAACCGGCACGTACCGCGTCAGGGTCTTACGTCGGAGTCACCTAGTGCAG”, the binding signal is 3530 fluorescence intensity (a.u.).

Turning to “ATACTATTTATTTTACTAACATTAATATCAATGTACTATTCGGAGTCACCTAGTGCAG”, the binding signal was 24700 fluorescence intensity (a.u.).
